US8394969B2, “Cyclic benzimidazole derivatives useful as anti-diabetic agents” (Merck Sharp & Dohme Corp., priority 2008, dated 2013)
Counter-ions that a name gives are not always drawn. Some of these results come from one statement about several compounds together.

Amino acid sequences for entries named in this document (tags omitted). A change or cut given only in a name is not applied to a line headed by its entry.
UniProt Q13131: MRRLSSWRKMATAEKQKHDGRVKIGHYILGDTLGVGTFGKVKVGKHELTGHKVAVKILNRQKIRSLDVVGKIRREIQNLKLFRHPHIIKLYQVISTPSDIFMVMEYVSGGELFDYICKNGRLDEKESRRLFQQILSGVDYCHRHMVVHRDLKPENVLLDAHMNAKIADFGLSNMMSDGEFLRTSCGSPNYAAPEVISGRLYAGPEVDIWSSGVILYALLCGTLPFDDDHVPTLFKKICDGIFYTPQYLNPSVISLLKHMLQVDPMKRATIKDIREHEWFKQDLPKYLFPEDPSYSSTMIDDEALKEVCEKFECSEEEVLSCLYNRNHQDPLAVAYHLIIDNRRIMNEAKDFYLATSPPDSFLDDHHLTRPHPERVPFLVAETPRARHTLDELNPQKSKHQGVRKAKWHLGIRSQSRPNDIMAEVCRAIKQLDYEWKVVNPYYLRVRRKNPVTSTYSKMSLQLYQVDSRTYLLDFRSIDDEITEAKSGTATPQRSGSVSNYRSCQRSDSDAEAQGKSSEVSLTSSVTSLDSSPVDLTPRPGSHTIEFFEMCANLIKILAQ
UniProt Q9Y478: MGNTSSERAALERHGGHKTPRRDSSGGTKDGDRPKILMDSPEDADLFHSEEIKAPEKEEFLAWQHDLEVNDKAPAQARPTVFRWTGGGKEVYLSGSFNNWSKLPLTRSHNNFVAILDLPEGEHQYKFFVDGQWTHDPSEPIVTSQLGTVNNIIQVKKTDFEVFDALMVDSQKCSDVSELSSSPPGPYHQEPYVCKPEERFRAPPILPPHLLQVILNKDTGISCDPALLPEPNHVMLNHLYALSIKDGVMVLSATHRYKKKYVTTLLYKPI

Biological target: recombinant human AMPK complex 1 (containing α1β1γ1) (Homo sapiens, UniProt Q13131+Q9Y478)
Assay: […] (in vitro AMPK activation assay)
Assay type: biochemical
Conditions: recombinant human AMPK complex 1 (α1β1γ1)

## Cc1ccc(Oc2nc3cc(-c4ccc5c(c4)CCC5=O)c(Cl)cc3[nH]2)cc1C(=O)O [Example 266, 5-[6-Chloro-5-(1-oxo-indan-5-yl)-1H-benzoimidazol-2-yloxy]-2-methyl-benzoic acid]
  EC50: < 10 µM

## Cc1ccc(Oc2nc3cc(-c4ccc(C5CC5)c(N(C)C)c4)c(Cl)cc3[nH]2)cc1C(=O)O [Example 267, 5-[6-Chloro-5-(4-cyclopropyl-3-dimethylamino-phenyl)-1H-benzoimidazol-2-yloxy]-2-methyl-benzoic acid]
  EC50: < 10 µM

## Cc1ccc(Oc2nc3cc(-c4ccc(C(C)C)c5c4CCN5C)c(Cl)cc3[nH]2)cc1C(=O)O [Example 268, 5-[6-Chloro-5-(7-isopropyl-1-methyl-2,3-dihydro-1H-indol-4-yl)-1H-benzoimidazol-2-yloxy]-2-methyl-benzoic acid]
  EC50: < 10 µM

## COC(=O)c1ccc(-c2cc3nc(Oc4ccc(C)c(C(=O)O)c4)[nH]c3cc2Cl)c2ccn(C)c12 [Example 269, 4-[2-(3-Carboxy-4-methyl-phenoxy)-6-chloro-1H-benzoimidazol-5-yl]-1-methyl-1H-indole-7-carboxylic acid methyl ester]
  EC50: < 10 µM

## Cc1ccc(Oc2nc3cc(-c4ccc(C(=O)O)c5c4c(C)cn5C)c(Cl)cc3[nH]2)cc1C(=O)O [Example 270, 4-[2-(3-Carboxy-4-methyl-phenoxy)-6-chloro-1H-benzoimidazol-5-yl]-1,3-dimethyl-1H-indole-7-carboxylic acid]
  EC50: < 10 µM

## Cc1ccc(Oc2nc3cc(-c4ccc(C(=O)O)c5c4ccn5C)c(Cl)cc3[nH]2)cc1C(=O)O [Example 271, 4-[2-(3-Carboxy-4-meihyl-phenoxy)-6-chloro-1H-benzoimidazol-5-yl]-1-methyl-1H-indole-7-carboxylic acid]
  EC50: < 10 µM

## Cc1ccc(Oc2nc3cc(-c4ccc(C(C)C)c5c4ccn5C)c(Cl)cc3[nH]2)cc1C(=O)O [Example 272, 5-[6-Chloro-5-(7-isopropyl-1-methyl-1H-indol-4-yl)-1H-benzoimidazol-2-yloxy]-2-methyl-benzoic acid]
  EC50: < 10 µM

## Cc1ccc(Oc2nc3cc(-c4ccc(C(C)C)c5[nH]ccc45)c(Cl)cc3[nH]2)cc1C(=O)O [Example 273, 5-[6-Chloro-5-(7-isopropyl-1H-indol-4-yl)-1H-benzoimidazol-2-yloxy]-2-methyl-benzoic acid]
  EC50: < 10 µM

## Cc1ccc(Oc2nc3cc(-c4ccc5c(c4)cc(CO)n5C)c(Cl)cc3[nH]2)cc1C(=O)O [Example 274, 5-[6-Chloro-5-(2-hydroxymethyl-1-methyl-1H-indol-5-yl)-1H-benzoimidazol-2-yloxy]-2-methyl-benzoic acid]
  EC50: < 10 µM

## Cc1ccc(Oc2nc3cc(-c4ccc5c(c4)cc(C(=O)O)n5C)c(Cl)cc3[nH]2)cc1C(=O)O [Example 275, 5-[2-(3-Carboxy-4-methyl-phenoxy)-6-chloro-1H-benzoimidazol-5-yl]-1-methyl-1H-indole-2-carboxylic acid]
  EC50: < 10 µM

## CCN1CCc2cc(-c3cc4nc(Oc5ccc(C)c(C(=O)O)c5)[nH]c4cc3Cl)ccc21 [Example 276, 5-[6-Chloro-5-(1-ethyl-2,3-dihydro-1H-indol-5-yl)-1H-benzoimidazol-2-yloxy]-2-methyl-benzoic acid]
  EC50: < 10 µM

## Cc1ccc(Oc2nc3cc(-c4ccc5c(c4)cc(-c4ccccc4)n5C)c(Cl)cc3[nH]2)cc1C(=O)O [Example 277, 5-[6-Chloro-5-(1-methyl-2-phenyl-1H-indol-5-yl)-1H-benzoimidazol-2-yloxy]-2-methyl-benzoic acid]
  EC50: < 10 µM

## Cc1ccc(Oc2nc3cc(-c4ccc5[nH]c(-c6ccccc6)cc5c4)c(Cl)cc3[nH]2)cc1C(=O)O [Example 278, 5-[6-Chloro-5-(2-phenyl-1H-indol-5-yl)-1H-benzoimidazol-2-yloxy]-2-methyl-benzoic acid]
  EC50: < 10 µM

## Cc1ccc(Oc2nc3cc(-c4ccc5c(c4)CCN5C(C)C)c(Cl)cc3[nH]2)cc1C(=O)O [Example 279, 5-[6-Chloro-5-(1-isopropyl-2,3-dihydro-1H-indol-5-yl)-1H-benzoimidazol-2-yloxy]-2-methyl-benzoic acid]
  EC50: < 10 µM

## Cc1ccc(Oc2nc3cc(-c4ccc5cnccc5c4)c(Cl)cc3[nH]2)cc1C(=O)O [Example 280, 5-(6-Chloro-5-isoquinolin-6-yl-1H-benzoimidazol-2-yloxy)-2-methyl-benzoic acid]
  EC50: < 10 µM

## Cc1ccc(Oc2nc3cc(-c4ccc5c(c4)c4c(n5C)CCC4)c(Cl)cc3[nH]2)cc1C(=O)O [Example 281, 5-[6-Chloro-5-(4-methyl-1,2,3,4-tetrahydro-cyclopenta[b]indol-7-yl)-1H-benzoimidazol-2-yloxy]-2-methyl-benzoic acid]
  EC50: < 10 µM

## Cc1ccc(Oc2nc3cc(-c4ccc5c(c4)CCN5C)c(Cl)cc3[nH]2)cc1C(=O)O [Example 282, 5-[6-Chloro-5-(1-methyl-2,3-dihydro-1H-indol-5-yl)-1H-benzoimidazol-2-yloxy]-2-methyl-benzoic acid]
  EC50: < 10 µM

## Cc1ccc(Oc2nc3cc(-c4cccc5c4ccn5C)c(Cl)cc3[nH]2)cc1C(=O)O [Example 283, 5-[6-Chloro-5-(1-methyl-1H-indol-4-yl)-1H-benzoimidazol-2-yloxy]-2-methyl-benzoic acid]
  EC50: < 10 µM

## Cc1ccc(Oc2nc3cc(-c4ccc5ccn(C)c5c4)c(Cl)cc3[nH]2)cc1C(=O)O [Example 284, 5-[6-Chloro-5-(1-methyl-1H-indol-6-yl)-1H-benzoimidazol-2-yloxy]-2-methyl-benzoic acid]
  EC50: < 10 µM

## Cc1ccc(Oc2nc3cc(-c4ccc5c(c4)CCN5)c(Cl)cc3[nH]2)cc1C(=O)O [Example 285, 5-[6-Chloro-5-(2,3-dihydro-1H-indol-5-yl)-1H-benzoimidazol-2-yloxy]-2-methyl-benzoic acid]
  EC50: < 10 µM

## Cc1ccc(Oc2nc3cc(-c4ccc5[nH]cc(C)c5c4)c(Cl)cc3[nH]2)cc1C(=O)O [Example 287, 5-[6-Chloro-5-(3-methyl-1H-indol-5-yl)-1H-benzoimidazol-2-yloxy]-2-methyl-benzoic acid]
  EC50: < 10 µM

## Cc1ccc(Oc2nc3cc(-c4ccc5c(c4)c(C)cn5C)c(Cl)cc3[nH]2)cc1C(=O)O [Example 288, 5-[6-Chloro-5-(1,3-dimethyl-1H-indol-5-yl)-1H-benzoimidazol-2-yloxy]-2-methyl-benzoic acid]
  EC50: < 10 µM

## Cc1ccc(Oc2nc3cc(-c4ccc5c(c4)cc(C)n5C)c(Cl)cc3[nH]2)cc1C(=O)O [Example 289, 5-[6-Chloro-5-(1,2-dimethyl-1H-indol-5-yl)-1H-benzoimidazol-2-yloxy]-2-methyl-benzoic acid]
  EC50: < 10 µM

## Cc1ccc(Oc2nc3cc(-c4ccc5c(C)cn(C(=O)OC(C)(C)C)c5c4)c(Cl)cc3[nH]2)cc1C(=O)O [Example 290, 6-[2-(3-Carboxy-4-methyl-phenoxy)-6-chloro-1H-benzoimidazol-5-yl]-3-methyl-indole-1-carboxylic acid tert butyl ester]
  EC50: < 10 µM

## Cc1ccc(Oc2nc3cc(-c4ccc5c(C)c[nH]c5c4)c(Cl)cc3[nH]2)cc1C(=O)O [Example 291, 5-[6-Chloro-5-(3-methyl-1H-indol-6-yl)-1H-benzoimidazol-2-yloxy]-2-methyl-benzoic acid]
  EC50: < 10 µM

## Cc1ccc(Oc2nc3cc(-c4ccc(C(C)N(C)C)cc4)c(Cl)cc3[nH]2)cc1C(=O)O (centres unmarked) [Example 292, 1-{4-[2-(3-carboxy-4-methylphenoxy)-6-chloro-1H-benzimidazol-5-yl]phenyl}-N,N-dimethylethanaminium trifluoroacetate]
  EC50: < 10 µM

## Cc1ccc(Oc2nc3cc(-c4ccc(C(C)N)cc4)c(Cl)cc3[nH]2)cc1C(=O)O (centres unmarked) [Example 293, 1-{4-[2-(3-carboxy-4-methylphenoxy)-6-chloro-1H-benzimidazol-5-yl]phenyl}ethanaminium trifluoroacetate]
  EC50: < 10 µM

## Cc1ccc(Oc2nc3cc(-c4ccc(CN(C)C)cc4)c(Cl)cc3[nH]2)cc1C(=O)O [Example 294, {4-[2-(3-carboxy-4-methylphenoxy)-6-chloro-1H-benzimidazol-5-yl]phenyl}-N,N-dimethylmethanaminium trifluoroacetate]
  EC50: < 10 µM

## Cc1ccc(Oc2nc3cc(-c4ccc(N(C)C)c(C(F)(F)F)c4)c(Cl)cc3[nH]2)cc1C(=O)O [Example 295, 2-(3-carboxy-4-methylphenoxy)-6-chloro-5-[4-(dimethylamino)-3-(trifluoromethyl)phenyl]-1H-3,1-benzimidazol-3-ium chloride]
  EC50: < 10 µM

## Cc1ccc(Oc2nc3cc(-c4ccc(N(C)C)c(F)c4)c(Cl)cc3[nH]2)cc1C(=O)O [Example 296, 2-(3-carboxy-4-methylphenoxy)-6-chloro-5-[4-(dimethylamino)-3-fluorophenyl]-1H-3,1-benzimidazol-3-ium chloride]
  EC50: < 10 µM

## Cc1ccc(Oc2nc3cc(-c4ccc(C(C)(C)N)cc4)c(Cl)cc3[nH]2)cc1C(=O)O [Example 297, 2-{4-[2-(3-carboxy-4-methylphenoxy)-6-chloro-1H-benzimidazol-5-yl]phenyl}propan-2-aminium trifluoroacetate]
  EC50: < 10 µM

## CC(=O)c1ccc2cc(-c3cc4nc(Oc5ccc(C)c(C(=O)O)c5)[nH]c4cc3Cl)ccc2c1 [Example 298, 5-[5-(6-Acetyl-naphthalen-2-yl)-6-chloro-1H-benzoimidazol-2-yloxy]-2-methyl-benzoic acid]
  EC50: < 10 µM

## Cc1ccc(Oc2nc3cc(-c4ccc5c(c4)CN(C(C)C)C5)c(Cl)cc3[nH]2)cc1C(=O)O [Example 299, 5-[2-(3-carboxy-4-methylphenoxy)-6-chloro-1H-benzimidazol-5-yl]-2-isopropyl-2,3-dihydro-1H-isoindolium trifluoroacetate]
  EC50: < 10 µM

## Cc1ccc(Oc2nc3cc(-c4ccc5c(c4)CN(C)C5)c(Cl)cc3[nH]2)cc1C(=O)O [Example 300, 5-[2-(3-carboxy-4-methylphenoxy)-6-chloro-1H-benzimidazol-5-yl]-2-methyl-2,3-dihydro-1H-isoindolium trifluoroacetate]
  EC50: < 10 µM

## Cc1ccc(Oc2nc3cc(-c4ccc5c(c4)CNC5)c(Cl)cc3[nH]2)cc1C(=O)O [Example 301, 5-[2-(3-carboxy-4-methylphenoxy)-6-chloro-1H-benzimidazol-5-yl]-2,3-dihydro-1H-isoindolium trifluoroacetate]
  EC50: < 10 µM
